The supplement of paper PMC10849652
Some of the results follow.

Amino acid sequences for entries named in this document (tags omitted). A change or cut given only in a name is not applied to a line headed by its entry.
UniProt Q8TDQ7: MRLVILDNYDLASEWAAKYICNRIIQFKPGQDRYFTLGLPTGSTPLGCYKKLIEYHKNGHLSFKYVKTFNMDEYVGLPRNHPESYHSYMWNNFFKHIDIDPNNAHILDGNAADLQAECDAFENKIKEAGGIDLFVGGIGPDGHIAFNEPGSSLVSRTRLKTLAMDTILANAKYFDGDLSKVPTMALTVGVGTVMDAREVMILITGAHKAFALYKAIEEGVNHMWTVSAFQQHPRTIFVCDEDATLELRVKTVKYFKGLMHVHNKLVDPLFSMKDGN
UniProt Q14691: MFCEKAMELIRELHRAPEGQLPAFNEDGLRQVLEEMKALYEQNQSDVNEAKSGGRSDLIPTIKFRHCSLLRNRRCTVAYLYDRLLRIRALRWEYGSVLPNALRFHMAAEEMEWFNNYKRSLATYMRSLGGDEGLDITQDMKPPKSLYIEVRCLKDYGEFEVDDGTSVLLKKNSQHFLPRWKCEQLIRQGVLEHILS
UniProt O43292: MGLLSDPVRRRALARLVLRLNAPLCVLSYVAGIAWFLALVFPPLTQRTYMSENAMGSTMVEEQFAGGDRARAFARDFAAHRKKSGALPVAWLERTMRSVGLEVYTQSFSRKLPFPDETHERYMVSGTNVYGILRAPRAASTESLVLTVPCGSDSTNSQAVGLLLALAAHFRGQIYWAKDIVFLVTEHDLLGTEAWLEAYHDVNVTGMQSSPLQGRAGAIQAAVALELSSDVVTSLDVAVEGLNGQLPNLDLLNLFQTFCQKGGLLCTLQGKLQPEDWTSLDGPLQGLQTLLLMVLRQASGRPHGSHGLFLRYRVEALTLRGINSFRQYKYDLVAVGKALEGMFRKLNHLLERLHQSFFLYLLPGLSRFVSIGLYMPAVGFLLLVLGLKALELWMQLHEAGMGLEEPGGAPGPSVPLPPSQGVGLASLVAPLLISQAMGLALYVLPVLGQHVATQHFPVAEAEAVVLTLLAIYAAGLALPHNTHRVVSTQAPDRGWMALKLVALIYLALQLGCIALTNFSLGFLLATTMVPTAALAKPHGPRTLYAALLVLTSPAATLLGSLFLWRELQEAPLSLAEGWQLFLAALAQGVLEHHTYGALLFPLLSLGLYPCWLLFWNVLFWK
UniProt Q96IJ6: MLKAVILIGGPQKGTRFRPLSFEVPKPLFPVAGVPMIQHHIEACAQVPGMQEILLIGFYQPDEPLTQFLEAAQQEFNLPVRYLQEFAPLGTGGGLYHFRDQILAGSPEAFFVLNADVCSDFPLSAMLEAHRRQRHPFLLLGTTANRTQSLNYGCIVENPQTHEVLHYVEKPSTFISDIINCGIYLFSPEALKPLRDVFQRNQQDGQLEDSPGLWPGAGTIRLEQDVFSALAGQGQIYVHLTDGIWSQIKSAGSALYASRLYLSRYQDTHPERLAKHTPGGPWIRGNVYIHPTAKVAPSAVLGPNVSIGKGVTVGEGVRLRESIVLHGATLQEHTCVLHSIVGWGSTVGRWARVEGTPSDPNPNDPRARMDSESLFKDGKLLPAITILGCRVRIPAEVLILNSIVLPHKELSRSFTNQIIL
UniProt Q9BYB4: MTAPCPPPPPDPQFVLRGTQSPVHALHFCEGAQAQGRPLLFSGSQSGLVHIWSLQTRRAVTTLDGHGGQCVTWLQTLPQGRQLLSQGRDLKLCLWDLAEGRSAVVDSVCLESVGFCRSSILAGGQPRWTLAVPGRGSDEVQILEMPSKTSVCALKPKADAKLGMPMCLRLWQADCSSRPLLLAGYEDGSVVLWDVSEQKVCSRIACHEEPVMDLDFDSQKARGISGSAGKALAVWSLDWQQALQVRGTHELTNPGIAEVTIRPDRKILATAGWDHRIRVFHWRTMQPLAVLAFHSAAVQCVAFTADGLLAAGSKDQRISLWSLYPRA
UniProt P16520, whole entry, looked up: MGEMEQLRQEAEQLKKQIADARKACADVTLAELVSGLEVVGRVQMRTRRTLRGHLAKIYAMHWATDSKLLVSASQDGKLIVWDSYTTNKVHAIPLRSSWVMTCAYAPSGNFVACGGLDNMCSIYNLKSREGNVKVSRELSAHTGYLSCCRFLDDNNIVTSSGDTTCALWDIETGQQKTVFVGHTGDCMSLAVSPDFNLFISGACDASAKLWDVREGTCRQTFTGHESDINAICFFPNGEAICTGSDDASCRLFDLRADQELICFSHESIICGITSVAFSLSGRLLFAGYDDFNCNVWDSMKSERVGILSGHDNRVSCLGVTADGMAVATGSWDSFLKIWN
UniProt Q14789: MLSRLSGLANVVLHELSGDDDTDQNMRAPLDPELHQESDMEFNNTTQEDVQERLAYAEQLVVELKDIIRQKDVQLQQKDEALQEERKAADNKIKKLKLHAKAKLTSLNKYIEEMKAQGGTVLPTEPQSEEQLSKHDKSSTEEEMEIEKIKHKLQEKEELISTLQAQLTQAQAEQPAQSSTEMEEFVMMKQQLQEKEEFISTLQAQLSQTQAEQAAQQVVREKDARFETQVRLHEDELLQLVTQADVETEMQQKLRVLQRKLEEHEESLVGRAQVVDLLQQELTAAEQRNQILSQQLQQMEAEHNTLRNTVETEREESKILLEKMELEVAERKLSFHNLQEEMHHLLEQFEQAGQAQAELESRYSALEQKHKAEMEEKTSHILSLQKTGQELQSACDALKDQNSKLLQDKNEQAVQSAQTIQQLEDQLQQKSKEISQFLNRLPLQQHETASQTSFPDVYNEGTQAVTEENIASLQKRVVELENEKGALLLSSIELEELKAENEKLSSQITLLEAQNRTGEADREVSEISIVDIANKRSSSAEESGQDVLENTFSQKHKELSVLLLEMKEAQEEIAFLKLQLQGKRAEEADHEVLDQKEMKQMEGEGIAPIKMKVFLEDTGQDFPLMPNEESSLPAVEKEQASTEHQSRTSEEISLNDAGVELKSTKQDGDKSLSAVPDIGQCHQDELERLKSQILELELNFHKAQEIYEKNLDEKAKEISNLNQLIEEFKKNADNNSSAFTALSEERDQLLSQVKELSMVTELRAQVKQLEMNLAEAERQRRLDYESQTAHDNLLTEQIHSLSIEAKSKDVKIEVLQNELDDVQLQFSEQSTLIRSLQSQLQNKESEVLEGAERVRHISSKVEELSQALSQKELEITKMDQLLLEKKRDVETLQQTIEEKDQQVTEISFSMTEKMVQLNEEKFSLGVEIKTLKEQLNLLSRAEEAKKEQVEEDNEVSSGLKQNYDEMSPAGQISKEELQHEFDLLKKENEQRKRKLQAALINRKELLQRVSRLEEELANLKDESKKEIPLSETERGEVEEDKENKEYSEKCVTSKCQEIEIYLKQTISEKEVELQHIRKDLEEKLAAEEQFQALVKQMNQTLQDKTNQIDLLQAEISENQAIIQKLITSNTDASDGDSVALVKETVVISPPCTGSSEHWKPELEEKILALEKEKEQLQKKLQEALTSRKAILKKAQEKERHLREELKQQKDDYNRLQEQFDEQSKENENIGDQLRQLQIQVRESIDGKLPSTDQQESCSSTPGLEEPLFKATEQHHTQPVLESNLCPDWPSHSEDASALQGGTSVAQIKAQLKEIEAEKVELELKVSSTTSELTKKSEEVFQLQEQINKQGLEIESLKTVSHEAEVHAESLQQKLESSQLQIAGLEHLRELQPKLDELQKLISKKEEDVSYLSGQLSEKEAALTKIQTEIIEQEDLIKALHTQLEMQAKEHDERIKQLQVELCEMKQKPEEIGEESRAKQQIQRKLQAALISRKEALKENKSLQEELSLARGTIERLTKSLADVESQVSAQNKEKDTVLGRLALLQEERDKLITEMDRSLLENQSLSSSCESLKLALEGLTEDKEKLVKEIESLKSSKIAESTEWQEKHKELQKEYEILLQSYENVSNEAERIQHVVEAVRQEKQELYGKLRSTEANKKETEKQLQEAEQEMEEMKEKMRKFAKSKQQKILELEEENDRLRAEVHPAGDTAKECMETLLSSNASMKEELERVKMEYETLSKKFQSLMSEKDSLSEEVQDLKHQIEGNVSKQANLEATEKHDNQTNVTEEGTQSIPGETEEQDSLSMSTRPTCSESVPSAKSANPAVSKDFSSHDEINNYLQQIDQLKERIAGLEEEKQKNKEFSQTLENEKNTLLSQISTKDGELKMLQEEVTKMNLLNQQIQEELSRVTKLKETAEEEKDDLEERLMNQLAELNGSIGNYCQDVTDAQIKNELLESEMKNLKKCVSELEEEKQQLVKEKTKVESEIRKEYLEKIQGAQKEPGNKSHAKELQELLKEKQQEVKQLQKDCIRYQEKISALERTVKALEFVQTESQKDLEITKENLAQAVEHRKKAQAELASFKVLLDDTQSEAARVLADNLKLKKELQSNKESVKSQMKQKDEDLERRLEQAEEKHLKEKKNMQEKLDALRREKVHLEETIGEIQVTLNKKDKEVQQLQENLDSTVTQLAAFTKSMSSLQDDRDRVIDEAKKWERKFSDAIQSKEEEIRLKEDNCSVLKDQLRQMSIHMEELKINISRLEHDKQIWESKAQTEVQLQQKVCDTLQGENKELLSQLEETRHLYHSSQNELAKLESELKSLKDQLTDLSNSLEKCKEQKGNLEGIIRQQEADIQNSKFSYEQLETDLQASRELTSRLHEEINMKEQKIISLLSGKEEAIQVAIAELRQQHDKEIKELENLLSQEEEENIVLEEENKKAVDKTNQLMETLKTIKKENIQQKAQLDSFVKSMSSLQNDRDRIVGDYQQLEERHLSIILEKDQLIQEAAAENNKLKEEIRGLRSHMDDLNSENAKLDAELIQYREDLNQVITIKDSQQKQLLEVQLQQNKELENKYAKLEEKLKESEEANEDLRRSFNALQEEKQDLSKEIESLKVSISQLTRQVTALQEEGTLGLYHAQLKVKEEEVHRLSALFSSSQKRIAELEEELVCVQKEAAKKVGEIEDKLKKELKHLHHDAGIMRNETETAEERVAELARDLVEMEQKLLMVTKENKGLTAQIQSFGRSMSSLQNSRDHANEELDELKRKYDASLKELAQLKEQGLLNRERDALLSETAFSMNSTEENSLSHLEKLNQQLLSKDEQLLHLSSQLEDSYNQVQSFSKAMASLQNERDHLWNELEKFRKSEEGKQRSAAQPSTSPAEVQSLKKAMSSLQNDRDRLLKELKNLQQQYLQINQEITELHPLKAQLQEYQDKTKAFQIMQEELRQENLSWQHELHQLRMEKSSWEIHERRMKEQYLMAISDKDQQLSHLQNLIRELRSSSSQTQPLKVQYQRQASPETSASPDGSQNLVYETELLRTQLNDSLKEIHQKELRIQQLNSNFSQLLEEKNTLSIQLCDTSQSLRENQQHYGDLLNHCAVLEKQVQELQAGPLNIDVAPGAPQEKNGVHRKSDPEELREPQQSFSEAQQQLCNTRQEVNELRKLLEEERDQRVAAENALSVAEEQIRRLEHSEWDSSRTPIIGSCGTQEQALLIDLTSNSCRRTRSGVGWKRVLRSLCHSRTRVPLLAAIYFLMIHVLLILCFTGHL
UniProt Q04760: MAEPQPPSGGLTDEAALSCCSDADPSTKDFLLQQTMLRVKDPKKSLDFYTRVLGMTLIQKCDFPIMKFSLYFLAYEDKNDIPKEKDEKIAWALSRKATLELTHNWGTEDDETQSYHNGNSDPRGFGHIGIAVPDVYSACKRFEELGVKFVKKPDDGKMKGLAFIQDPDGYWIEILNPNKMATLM
UniProt Q5VSY0: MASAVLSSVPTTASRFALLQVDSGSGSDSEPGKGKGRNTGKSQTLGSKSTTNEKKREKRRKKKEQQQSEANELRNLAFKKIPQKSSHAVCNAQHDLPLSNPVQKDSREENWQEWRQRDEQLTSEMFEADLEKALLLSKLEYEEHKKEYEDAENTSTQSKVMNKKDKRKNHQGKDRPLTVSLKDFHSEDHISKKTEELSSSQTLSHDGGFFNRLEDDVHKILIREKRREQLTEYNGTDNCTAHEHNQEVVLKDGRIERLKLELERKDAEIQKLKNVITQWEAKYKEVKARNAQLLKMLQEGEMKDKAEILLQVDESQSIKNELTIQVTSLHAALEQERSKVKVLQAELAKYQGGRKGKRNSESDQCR
UniProt Q9NVN8: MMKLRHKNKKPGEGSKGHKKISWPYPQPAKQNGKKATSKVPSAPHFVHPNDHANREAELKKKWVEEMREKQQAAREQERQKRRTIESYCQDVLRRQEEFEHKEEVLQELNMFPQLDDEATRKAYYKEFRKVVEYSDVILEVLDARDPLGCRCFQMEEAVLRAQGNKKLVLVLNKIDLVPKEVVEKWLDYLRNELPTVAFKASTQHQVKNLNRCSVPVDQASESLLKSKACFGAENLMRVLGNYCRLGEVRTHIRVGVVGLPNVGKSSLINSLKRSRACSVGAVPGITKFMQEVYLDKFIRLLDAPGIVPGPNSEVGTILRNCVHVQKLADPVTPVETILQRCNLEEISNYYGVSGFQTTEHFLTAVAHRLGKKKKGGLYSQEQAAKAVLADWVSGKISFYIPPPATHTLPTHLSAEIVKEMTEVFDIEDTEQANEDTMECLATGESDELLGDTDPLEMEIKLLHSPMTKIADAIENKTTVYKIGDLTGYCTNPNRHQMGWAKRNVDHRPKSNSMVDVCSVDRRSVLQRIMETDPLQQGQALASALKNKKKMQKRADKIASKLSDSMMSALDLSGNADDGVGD

Key:
Experiment in all cases: log2 fold change, soluble protein after heating vs DMSO (PISA); higher = thermal stabilisation; K562 lysate, 10 uM; active = over 0.2 and 3.5 SD of the protein, either way, in both replicates (recomputed)
[1] = compound: NCC(=O)Nc1ccc(-n2nc(C(F)(F)F)cc2-c2ccc3c(ccc4ccccc43)c2)cc1
Outline: (§1)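 K562 pellets were dounce-homogenised in PBS pH 7.4 with 1 mM MgCl2, and the crude extract at 1 mg/mL protein was treated with 10 μM compound for 30 min. Aliquots were heated for 3 min across 48°C-58°C, pooled, and brought to 0.5% NP-40 at 4°C; soluble protein was the supernatant after 21,000xg for 90 min. Soluble protein was quantified by TMTpro 16plex LC-MS/MS with channel sums equalised, and reported as log2 fold change in thermal stability against DMSO controls, with values from duplicates.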

vorinostat = compound: O=C(CCCCCCC(=O)Nc1ccccc1)NO [vorinostat]
Outline: as §1

silmitasertib = compound: O=C(O)c1ccc2c(c1)nc(Nc1cccc(Cl)c1)c1ccncc12 [silmitasertib]
Outline: as §1

[2] = compound: O=C1NC(=O)C(c2cnc3ccccn23)=C1c1cn2c3c(cc(F)cc13)CN(C(=O)N1CCCCC1)CC2
Outline: as §1

entospletinib = compound: c1cn2cc(-c3ccc4cn[nH]c4c3)nc(Nc3ccc(N4CCOCC4)cc3)c2n1 [entospletinib]
Outline: as §1

GPN1 isoform 5 (UniProt Q9HCN4)
log2 fold change [1]: inactive: -0.025
log2 fold change (vorinostat): inactive: 0.11
log2 fold change (silmitasertib): inactive: -0.033
log2 fold change [2]: inactive: 0.03
log2 fold change (entospletinib): inactive: 0.066

GNPDA2 (UniProt Q8TDQ7)
log2 fold change [1]: inactive: -0.014
log2 fold change (vorinostat): inactive: 0.05
log2 fold change (silmitasertib): inactive: -0.018
log2 fold change [2]: inactive: 0.019
log2 fold change (entospletinib): inactive: -0.007

GPS1 isoform 6 (UniProt Q13098)
log2 fold change [1]: inactive: -0.007
log2 fold change (vorinostat): inactive: 0.054
log2 fold change (silmitasertib): inactive: -0.011
log2 fold change [2]: inactive: -0.011
log2 fold change (entospletinib): inactive: -0.019

GIT2 (UniProt Q14161)
log2 fold change [1]: inactive: -0.072
log2 fold change (vorinostat): inactive: 0.044
log2 fold change (silmitasertib): inactive: -0.014
log2 fold change [2]: inactive: -0.04
log2 fold change (entospletinib): inactive: 0.052

GLRX2 (UniProt Q9NS18)
log2 fold change [1]: inactive: -0.091
log2 fold change (vorinostat): inactive: 0.092
log2 fold change (silmitasertib): inactive: -0.031
log2 fold change [2]: inactive: -0.004
log2 fold change (entospletinib): inactive: -0.032

GID8 (UniProt Q9NWU2)
log2 fold change [1]: inactive: -0.041
log2 fold change (vorinostat): inactive: -0.055
log2 fold change (silmitasertib): inactive: 0.007
log2 fold change [2]: inactive: -0.019
log2 fold change (entospletinib): inactive: -0.069

GMNN (UniProt O75496)
log2 fold change [1]: inactive: -0.021
log2 fold change (vorinostat): inactive: 0.071
log2 fold change (silmitasertib): inactive: -0.004
log2 fold change [2]: inactive: 0.01
log2 fold change (entospletinib): inactive: 0.021

GPRIN1 (UniProt Q7Z2K8)
log2 fold change [1]: inactive: 0.016
log2 fold change (vorinostat): inactive: 0.059
log2 fold change (silmitasertib): inactive: -0.023
log2 fold change [2]: inactive: -0.01
log2 fold change (entospletinib): inactive: -0.034

GOSR2 isoform 2 (UniProt O14653)
log2 fold change [1]: inactive: 0.034
log2 fold change (vorinostat): inactive: -0.014
log2 fold change (silmitasertib): inactive: -0.028
log2 fold change [2]: inactive: -0.017
log2 fold change (entospletinib): inactive: -0.05

GGT7 (UniProt Q9UJ14)
log2 fold change [1]: inactive: -0.094
log2 fold change (vorinostat): active: 0.244
log2 fold change (silmitasertib): inactive: -0.017
log2 fold change [2]: inactive: 0.015
log2 fold change (entospletinib): inactive: -0.056

GPN2 (UniProt Q9H9Y4)
log2 fold change [1]: inactive: 0.006
log2 fold change (vorinostat): inactive: -0.093
log2 fold change (silmitasertib): inactive: 0.009
log2 fold change [2]: inactive: -0.062
log2 fold change (entospletinib): inactive: 0.203

GNA13 (UniProt Q14344)
log2 fold change [1]: inactive: -0.018
log2 fold change (vorinostat): inactive: 0.084
log2 fold change (silmitasertib): inactive: 0.021
log2 fold change [2]: inactive: -0.005
log2 fold change (entospletinib): inactive: -0.014

GINS1 (UniProt Q14691)
log2 fold change [1]: inactive: 0.008
log2 fold change (vorinostat): inactive: 0.059
log2 fold change (silmitasertib): inactive: -0.025
log2 fold change [2]: inactive: -0.015
log2 fold change (entospletinib): inactive: -0.028

GNAS (UniProt Q5JWF2)
log2 fold change [1]: inactive: 0.026
log2 fold change (vorinostat): inactive: 0.046
log2 fold change (silmitasertib): inactive: 0
log2 fold change [2]: inactive: -0.015
log2 fold change (entospletinib): inactive: 0.012

GPS2 (UniProt Q13227)
log2 fold change [1]: inactive: 0.097
log2 fold change (vorinostat): inactive: -0.222
log2 fold change (silmitasertib): inactive: 0.025
log2 fold change [2]: inactive: -0.104
log2 fold change (entospletinib): inactive: -0.049

GOLGA4 isoform 5 (UniProt Q13439)
log2 fold change [1]: inactive: 0.033
log2 fold change (vorinostat): inactive: -0.062
log2 fold change (silmitasertib): inactive: 0.007
log2 fold change [2]: inactive: 0.016
log2 fold change (entospletinib): inactive: -0.011

GNPNAT1 (UniProt Q96EK6)
log2 fold change [1]: inactive: -0.023
log2 fold change (vorinostat): inactive: 0.129
log2 fold change (silmitasertib): inactive: -0.045
log2 fold change [2]: inactive: -0.031
log2 fold change (entospletinib): inactive: 0.047

GPAA1 (UniProt O43292)
log2 fold change [1]: inactive: 0.043
log2 fold change (vorinostat): inactive: 0.046
log2 fold change (silmitasertib): inactive: -0.052
log2 fold change [2]: inactive: -0.013
log2 fold change (entospletinib): inactive: -0.006

GGCX (UniProt P38435)
log2 fold change [1]: inactive: 0.109
log2 fold change (vorinostat): inactive: 0.033
log2 fold change (silmitasertib): inactive: -0.036
log2 fold change [2]: inactive: -0.013
log2 fold change (entospletinib): inactive: -0.067

GMPS (UniProt P49915)
log2 fold change [1]: inactive: 0.017
log2 fold change (vorinostat): active: -0.553
log2 fold change (silmitasertib): inactive: 0.028
log2 fold change [2]: inactive: 0.002
log2 fold change (entospletinib): inactive: 0.01

GMPPA (UniProt Q96IJ6)
log2 fold change [1]: inactive: -0.022
log2 fold change (vorinostat): inactive: -0.01
log2 fold change (silmitasertib): inactive: -0.025
log2 fold change [2]: inactive: -0.001
log2 fold change (entospletinib): inactive: -0.04

GOT2 (UniProt P00505)
log2 fold change [1]: inactive: -0.014
log2 fold change (vorinostat): inactive: 0.157
log2 fold change (silmitasertib): inactive: -0.006
log2 fold change [2]: inactive: 0.012
log2 fold change (entospletinib): inactive: 0.009

GPATCH8 (UniProt Q9UKJ3)
log2 fold change [1]: inactive: 0.066
log2 fold change (vorinostat): inactive: -0.041
log2 fold change (silmitasertib): inactive: 0
log2 fold change [2]: inactive: 0.03
log2 fold change (entospletinib): inactive: 0.006

GLRX3 (UniProt O76003)
log2 fold change [1]: inactive: -0.004
log2 fold change (vorinostat): inactive: -0.165
log2 fold change (silmitasertib): inactive: -0.004
log2 fold change [2]: inactive: 0.035
log2 fold change (entospletinib): inactive: 0.026

GGNBP2 (UniProt Q9H3C7)
log2 fold change [1]: inactive: 0.014
log2 fold change (vorinostat): inactive: -0.266
log2 fold change (silmitasertib): inactive: -0.046
log2 fold change [2]: inactive: 0.026
log2 fold change (entospletinib): inactive: -0.043

GLUD2 (UniProt P49448)
log2 fold change [1]: active: 0.297
log2 fold change (vorinostat): inactive: 0.096
log2 fold change (silmitasertib): inactive: 0.022
log2 fold change [2]: inactive: 0.026
log2 fold change (entospletinib): inactive: -0.084

GNL1 (UniProt P36915)
log2 fold change [1]: inactive: 0.013
log2 fold change (vorinostat): inactive: -0.023
log2 fold change (silmitasertib): inactive: 0.017
log2 fold change [2]: inactive: -0.016
log2 fold change (entospletinib): inactive: 0.032

GNS (UniProt P15586)
log2 fold change [1]: inactive: 0.019
log2 fold change (vorinostat): inactive: 0.122
log2 fold change (silmitasertib): inactive: -0.013
log2 fold change [2]: inactive: 0.002
log2 fold change (entospletinib): inactive: 0.005

GNB1L (UniProt Q9BYB4)
log2 fold change [1]: inactive: -0.002
log2 fold change (vorinostat): inactive: 0.025
log2 fold change (silmitasertib): inactive: 0.015
log2 fold change [2]: inactive: 0.003
log2 fold change (entospletinib): inactive: 0.063

GNAI3 (UniProt P08754)
log2 fold change [1]: inactive: 0.043
log2 fold change (vorinostat): inactive: -0.021
log2 fold change (silmitasertib): inactive: 0.015
log2 fold change [2]: inactive: -0.086
log2 fold change (entospletinib): inactive: 0.1

GORASP2 isoform 3 (UniProt Q9H8Y8)
log2 fold change [1]: inactive: 0.003
log2 fold change (vorinostat): inactive: 0.048
log2 fold change (silmitasertib): inactive: -0.011
log2 fold change [2]: inactive: -0.009
log2 fold change (entospletinib): inactive: 0.008

GLCCI1 (UniProt Q86VQ1)
log2 fold change [1]: inactive: 0.064
log2 fold change (vorinostat): inactive: 0.074
log2 fold change (silmitasertib): inactive: -0.013
log2 fold change [2]: inactive: 0.003
log2 fold change (entospletinib): inactive: -0.028

GNB3 (UniProt P16520)
log2 fold change [1]: inactive: 0.101
log2 fold change (vorinostat): inactive: 0.069
log2 fold change (silmitasertib): inactive: -0.024
log2 fold change [2]: inactive: -0.071
log2 fold change (entospletinib): inactive: 0.038

GNL2 (UniProt Q13823)
log2 fold change [1]: inactive: -0.041
log2 fold change (vorinostat): inactive: -0.02
log2 fold change (silmitasertib): inactive: 0.03
log2 fold change [2]: inactive: -0.03
log2 fold change (entospletinib): inactive: 0.005

GPKOW (UniProt Q92917)
log2 fold change [1]: inactive: 0.005
log2 fold change (vorinostat): inactive: -0.089
log2 fold change (silmitasertib): inactive: 0.017
log2 fold change [2]: inactive: -0.016
log2 fold change (entospletinib): inactive: 0.001

GGH (UniProt Q92820)
log2 fold change [1]: inactive: 0.01
log2 fold change (vorinostat): inactive: 0.209
log2 fold change (silmitasertib): inactive: -0.034
log2 fold change [2]: inactive: 0.028
log2 fold change (entospletinib): inactive: 0.018

GOLGB1 (UniProt Q14789)
log2 fold change [1]: inactive: 0.021
log2 fold change (vorinostat): inactive: -0.094
log2 fold change (silmitasertib): inactive: 0.008
log2 fold change [2]: inactive: -0.014
log2 fold change (entospletinib): inactive: 0

GLO1 (UniProt Q04760)
log2 fold change [1]: inactive: -0.031
log2 fold change (vorinostat): inactive: 0.014
log2 fold change (silmitasertib): inactive: 0.026
log2 fold change [2]: inactive: 0.035
log2 fold change (entospletinib): inactive: -0.025

GKAP1 (UniProt Q5VSY0)
log2 fold change [2]: inactive: -0.111

GMEB1 (UniProt Q9Y692)
log2 fold change [1]: inactive: 0
log2 fold change (vorinostat): inactive: -0.035
log2 fold change (silmitasertib): inactive: 0.029
log2 fold change [2]: inactive: -0.042
log2 fold change (entospletinib): inactive: -0.006

GPRASP2 (UniProt Q96D09)
log2 fold change [1]: inactive: -0.013
log2 fold change (entospletinib): inactive: 0.107

GNL3L (UniProt Q9NVN8)
log2 fold change [1]: inactive: -0.12
log2 fold change (vorinostat): inactive: -0.161
log2 fold change (silmitasertib): inactive: -0.094
log2 fold change [2]: inactive: -0.072
log2 fold change (entospletinib): inactive: -0.07

GINM1 (UniProt Q9NU53)
log2 fold change (vorinostat): inactive: 0.129
log2 fold change (silmitasertib): inactive: -0.083
log2 fold change [2]: inactive: 0.175
